Measured values: the supplement of paper PMC8728848
Some of the results follow.

Columns and labels:
Experiment in all cases: glycan array binding signal (z-score within array); higher = stronger binding
Conditions in all cases: glycan notation: IUPAC condensed, linker removed
[1] = molecular target: Fuc(a1-2)[GalNAc(a1-3)]Gal(b1-4)Glc
Method in brief: (§1)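 The Consortium for Functional Glycomics database supplied 3228 glycan arrays, of which those lacking an available protein sequence were dropped. The binding signal, a within-array Z-score, was averaged across arrays of the same protein sequence and across linkers. Negative scores can be read as non-binding.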

[2] = molecular target: Fuc(a1-2)[GalNAc(a1-3)]Gal(b1-4)GlcNAc
Method in brief: as §1

[3] = molecular target: Fuc(a1-2)[GalNAc(a1-3)]Gal(b1-4)GlcNAc(b1-2)Man(a1-3)[Fuc(a1-2)[GalNAc(a1-3)]Gal(b1-4)GlcNAc(b1-2)Man(a1-6)]Man(b1-4)GlcNAc(b1-4)GlcNAc
Method in brief: as §1

[4] = molecular target: Fuc(a1-2)[GalNAc(a1-3)]Gal(b1-4)GlcNAc(b1-2)Man(a1-3)[Fuc(a1-2)[GalNAc(a1-3)]Gal(b1-4)GlcNAc(b1-2)Man(a1-6)]Man(b1-4)GlcNAc(b1-4)[Fuc(a1-6)]GlcNAc
Method in brief: as §1

[5] = molecular target: Fuc(a1-2)[GalNAc(a1-3)]Gal(b1-4)GlcNAc(b1-3)Gal(b1-4)GlcNAc
Method in brief: as §1

[6] = molecular target: Fuc(a1-2)[GalNAc(a1-3)]Gal(b1-4)GlcNAc(b1-3)Gal(b1-4)GlcNAc(b1-3)Gal(b1-4)GlcNAc
Method in brief: as §1

[7] = molecular target: Fuc(a1-2)[GalNAc(a1-3)]Gal(b1-4)GlcNAc(b1-3)GalNAc
Method in brief: as §1

[8] = molecular target: Fuc(a1-2)[GalNAc(a1-3)]Gal(b1-4)[Fuc(a1-3)]GlcNAc
Method in brief: as §1

[9] = molecular target: Fuc(a1-2)[GalNAc(a1-3)]Gal(b1-4)[Fuc(a1-3)]GlcNAc(b1-3)GalNAc
Method in brief: as §1

[10] = molecular target: Fuc(a1-2)[GalNAc(a1-4)]Gal(b1-4)GlcNAc
Method in brief: as §1

[11] = molecular target: Fuc(a1-2)[GalNAc(b1-3)]Gal
Method in brief: as §1

Fuc(a1-3)GlcNAc = molecular target: Fuc(a1-3)GlcNAc
Method in brief: as §1

[12] = molecular target: Fuc(a1-3)[Gal(b1-4)]Glc6S
Method in brief: as §1

[13] = molecular target: Fuc(a1-3)[Gal(b1-4)]GlcNAc
Method in brief: as §1

[14] = molecular target: Fuc(a1-3)[Gal(b1-4)]GlcNAc(b1-2)Man(a1-3)[Fuc(a1-3)[Gal(b1-4)]GlcNAc(b1-2)Man(a1-6)]Man(b1-4)GlcNAc(b1-4)GlcNAc
Method in brief: as §1

[15] = molecular target: Fuc(a1-3)[Gal(b1-4)]GlcNAc(b1-2)Man(a1-3)[Fuc(a1-3)[Gal(b1-4)]GlcNAc(b1-2)Man(a1-6)]Man(b1-4)GlcNAc(b1-4)[Fuc(a1-6)]GlcNAc
Method in brief: as §1

[16] = molecular target: Fuc(a1-3)[Gal(b1-4)]GlcNAc(b1-3)Gal(b1-3)[Fuc(a1-4)]GlcNAc
Method in brief: as §1

[17] = molecular target: Fuc(a1-3)[Gal(b1-4)]GlcNAc(b1-3)GalNAc
Method in brief: as §1

[18] = molecular target: Fuc(a1-3)[Gal(b1-4)]GlcNAc(b1-4)Gal(b1-4)[Fuc(a1-3)]GlcNAc
Method in brief: as §1

[19] = molecular target: Fuc(a1-3)[Gal(b1-4)]GlcNAc(b1-4)Gal(b1-4)[Fuc(a1-3)]GlcNAc(b1-4)Gal(b1-4)[Fuc(a1-3)]GlcNAc
Method in brief: as §1

[20] = molecular target: Fuc(a1-3)[Gal(b1-4)]GlcNAc(b1-6)GalNAc
Method in brief: as §1

[21] = molecular target: Fuc(a1-3)[Gal(b1-4)]GlcNAc(b1-6)[Gal(b1-3)GlcNAc(b1-3)]Gal(b1-4)Glc
Method in brief: as §1

[22] = molecular target: Fuc(a1-3)[Gal(b1-4)]GlcNAc(b1-6)[Neu5Ac(a2-3)Gal(b1-3)]GalNAc
Method in brief: as §1

[23] = molecular target: Fuc(a1-3)[Gal(b1-4)]GlcNAc6S
Method in brief: as §1

[24] = molecular target: Fuc(a1-3)[Gal3S(b1-4)]GlcNAc
Method in brief: as §1

[25] = molecular target: Fuc(a1-3)[Gal3S(b1-4)]GlcNAc6S
Method in brief: as §1

[26] = molecular target: Fuc(a1-3)[GalNAc(b1-4)]GlcNAc
Method in brief: as §1

Fuc(a1-4)GlcNAc = molecular target: Fuc(a1-4)GlcNAc
Method in brief: as §1

Fuc(b1-3)GlcNAc = molecular target: Fuc(b1-3)GlcNAc
Method in brief: as §1

Gal(a1-2)Gal = molecular target: Gal(a1-2)Gal
Method in brief: as §1

Gal(a1-3)Gal = molecular target: Gal(a1-3)Gal
Method in brief: as §1

Gal(a1-3)Gal(b1-3)GlcNAc = molecular target: Gal(a1-3)Gal(b1-3)GlcNAc
Method in brief: as §1

[27] = molecular target: Gal(a1-3)Gal(b1-3)GlcNAc(b1-2)Man(a1-3)[Gal(a1-3)Gal(b1-3)GlcNAc(b1-2)Man(a1-6)]Man(b1-4)GlcNAc(b1-4)GlcNAc
Method in brief: as §1

[28] = molecular target: Gal(a1-3)Gal(b1-3)GlcNAc(b1-3)GalNAc
Method in brief: as §1

[29] = molecular target: Gal(a1-3)Gal(b1-3)[Fuc(a1-4)]GlcNAc(b1-2)Man(a1-3)[Gal(a1-3)Gal(b1-3)[Fuc(a1-4)]GlcNAc(b1-2)Man(a1-6)]Man(b1-4)GlcNAc(b1-4)GlcNAc
Method in brief: as §1

Gal(a1-3)Gal(b1-4)Glc = molecular target: Gal(a1-3)Gal(b1-4)Glc
Method in brief: as §1

Gal(a1-3)Gal(b1-4)GlcNAc = molecular target: Gal(a1-3)Gal(b1-4)GlcNAc
Method in brief: as §1

[30] = molecular target: Gal(a1-3)Gal(b1-4)GlcNAc(b1-3)GalNAc
Method in brief: as §1

[31] = molecular target: Gal(a1-3)Gal(b1-4)[Fuc(a1-3)]GlcNAc
Method in brief: as §1

[32] = molecular target: Gal(a1-3)Gal(b1-4)[Fuc(a1-3)]GlcNAc(b1-2)Man(a1-3)[Gal(a1-3)Gal(b1-4)[Fuc(a1-3)]GlcNAc(b1-2)Man(a1-6)]Man(b1-4)GlcNAc(b1-4)GlcNAc
Method in brief: as §1

Gal(a1-3)GalNAc = molecular target: Gal(a1-3)GalNAc
Method in brief: as §1

[33] = molecular target: Gal(a1-3)[Gal(a1-4)]Gal(b1-4)GlcNAc
Method in brief: as §1

[34] = molecular target: Gal(a1-4)Gal(b1-3)GlcNAc(b1-2)Man(a1-3)[Gal(a1-4)Gal(b1-3)GlcNAc(b1-2)Man(a1-6)]Man(b1-4)GlcNAc(b1-4)GlcNAc
Method in brief: as §1

Gal(a1-4)Gal(b1-4)Glc = molecular target: Gal(a1-4)Gal(b1-4)Glc
Method in brief: as §1

Gal(a1-4)Gal(b1-4)GlcNAc = molecular target: Gal(a1-4)Gal(b1-4)GlcNAc
Method in brief: as §1

[35] = molecular target: Gal(a1-4)Gal(b1-4)GlcNAc(b1-2)Man(a1-3)[Gal(a1-4)Gal(b1-4)GlcNAc(b1-2)Man(a1-6)]Man(b1-4)GlcNAc(b1-4)GlcNAc
Method in brief: as §1

[36] = molecular target: Gal(a1-4)Gal(b1-4)GlcNAc(b1-3)Gal(b1-4)Glc
Method in brief: as §1

Gal(a1-4)GlcNAc = molecular target: Gal(a1-4)GlcNAc
Method in brief: as §1

Gal(a1-6)Glc = molecular target: Gal(a1-6)Glc
Method in brief: as §1

Gal(b1-2)Gal = molecular target: Gal(b1-2)Gal
Method in brief: as §1

Gal(b1-3)Gal = molecular target: Gal(b1-3)Gal
Method in brief: as §1

Gal(b1-3)Gal(b1-4)GlcNAc = molecular target: Gal(b1-3)Gal(b1-4)GlcNAc
Method in brief: as §1

[37] = molecular target: Gal(b1-3)Gal(b1-4)GlcNAc(b1-2)Man(a1-3)[Gal(b1-3)Gal(b1-4)GlcNAc(b1-2)Man(a1-6)]Man(b1-4)GlcNAc(b1-4)GlcNAc
Method in brief: as §1

Gal(b1-3)GalNAc = molecular target: Gal(b1-3)GalNAc
Method in brief: as §1

[38] = molecular target: Gal(b1-3)GalNAc(a1-3)[Fuc(a1-2)]Gal(b1-4)Glc
Method in brief: as §1

[39] = molecular target: Gal(b1-3)GalNAc(a1-3)[Fuc(a1-2)]Gal(b1-4)GlcNAc
Method in brief: as §1

[40] = molecular target: Gal(b1-3)GalNAc(b1-3)Gal(a1-4)Gal(b1-4)Glc
Method in brief: as §1

[41] = molecular target: Gal(b1-3)GalNAc(b1-4)Gal(b1-4)Glc
Method in brief: as §1

[42] = molecular target: Gal(b1-3)GalNAc(b1-4)[Neu5Ac(a2-3)]Gal(b1-4)Glc
Method in brief: as §1

Gal(b1-3)GlcNAc = molecular target: Gal(b1-3)GlcNAc
Method in brief: as §1

B1: Eosinophil-derived neurotoxin (EDN) (Homo sapiens), P10153 (protein)
chain: MVPKLFTSQICLLLLLGLLAVEGSLHVKPPQFTWAQWFETQHINMTSQQCTNAMQVINNYQRRCKNQNTFLLTTFANVVNVCGNPNMTCPSNKTRKNCHHSGSQVPLIHCNLTTPSPQNISNCRYAQTPANMFYIVACDNRDQRRDPPQYPVVPVHLDRII
- glycan array binding signal (z-score) [1]: 0.286
- glycan array binding signal (z-score) [2]: -0.196
- glycan array binding signal (z-score) [3]: 0.194
- glycan array binding signal (z-score) [4]: -0.173
- glycan array binding signal (z-score) [5]: 0.43
- glycan array binding signal (z-score) [6]: -0.234
- glycan array binding signal (z-score) [7]: 0.483
- glycan array binding signal (z-score) [8]: -0.395
- glycan array binding signal (z-score) [9]: -0.24
- glycan array binding signal (z-score) [10]: -0.107
- glycan array binding signal (z-score) [11]: 0.098
- glycan array binding signal (z-score) (Fuc(a1-3)GlcNAc): 0.151
- glycan array binding signal (z-score) [12]: 0.452
- glycan array binding signal (z-score) [13]: -0.242
- glycan array binding signal (z-score) [14]: 0.481
- glycan array binding signal (z-score) [15]: -0.265
- glycan array binding signal (z-score) [16]: 0.062
- glycan array binding signal (z-score) [17]: 0.511
- glycan array binding signal (z-score) [18]: -0.868
- glycan array binding signal (z-score) [19]: -0.17
- glycan array binding signal (z-score) [20]: -0.97
- glycan array binding signal (z-score) [21]: -0.086
- glycan array binding signal (z-score) [22]: 0.247
- glycan array binding signal (z-score) [23]: 0.272
- glycan array binding signal (z-score) [24]: 0.4
- glycan array binding signal (z-score) [25]: -0.212
- glycan array binding signal (z-score) [26]: 0.494
- glycan array binding signal (z-score) (Fuc(a1-4)GlcNAc): -0.114
- glycan array binding signal (z-score) (Fuc(b1-3)GlcNAc): -0.332
- glycan array binding signal (z-score) (Gal(a1-2)Gal): -0.368
- glycan array binding signal (z-score) (Gal(a1-3)Gal): -0.363
- glycan array binding signal (z-score) (Gal(a1-3)Gal(b1-3)GlcNAc): 0.312
- glycan array binding signal (z-score) [27]: 0.922
- glycan array binding signal (z-score) [28]: -0.267
- glycan array binding signal (z-score) [29]: -0.711
- glycan array binding signal (z-score) (Gal(a1-3)Gal(b1-4)Glc): 0.4
- glycan array binding signal (z-score) (Gal(a1-3)Gal(b1-4)GlcNAc): 0.494
- glycan array binding signal (z-score) [30]: 0.141
- glycan array binding signal (z-score) [31]: -0.513
- glycan array binding signal (z-score) [32]: 0.387
- glycan array binding signal (z-score) (Gal(a1-3)GalNAc): -0.593
- glycan array binding signal (z-score) [33]: -0.648
- glycan array binding signal (z-score) [34]: -0.75
- glycan array binding signal (z-score) (Gal(a1-4)Gal(b1-4)Glc): -0.014
- glycan array binding signal (z-score) (Gal(a1-4)Gal(b1-4)GlcNAc): 0.051
- glycan array binding signal (z-score) [35]: -0.002
- glycan array binding signal (z-score) [36]: -0.652
- glycan array binding signal (z-score) (Gal(a1-4)GlcNAc): -0.369
- glycan array binding signal (z-score) (Gal(a1-6)Glc): -0.225
- glycan array binding signal (z-score) (Gal(b1-2)Gal): 0.489
- glycan array binding signal (z-score) (Gal(b1-3)Gal): -0.224
- glycan array binding signal (z-score) (Gal(b1-3)Gal(b1-4)GlcNAc): -0.796
- glycan array binding signal (z-score) [37]: 0.187
- glycan array binding signal (z-score) (Gal(b1-3)GalNAc): -0.002
- glycan array binding signal (z-score) [38]: -0.573
- glycan array binding signal (z-score) [39]: 0.269
- glycan array binding signal (z-score) [40]: 0.257
- glycan array binding signal (z-score) [41]: -0.678
- glycan array binding signal (z-score) [42]: 1.07
- glycan array binding signal (z-score) (Gal(b1-3)GlcNAc): -0.339
